pIC50: −log10 of the molar value.
System: Capan-1 (pancreatic adenocarcinoma)
Experiment: Cytostatic activity (cell proliferation)
Type: cell-based
Experimental: The 50% cytostatic inhibitory concentration (IC50) causing a 50% decrease in cell proliferation was determined for all obtained compounds toward 9 cancerous cell lines, i.e.,: Capan-1 (pancreatic adenocarcinoma), Hap1 (chronic myeloid leukemia), HCT-116 (colorectal carcinoma), NCI-H460 (lung carcinoma), DND-41 (acute lymphoblastic leukemia), HL-60 (acute myeloid leukemia), K-562 (chronic myeloid leukemia), MM.1S (multiple myeloma), Z-138 non-Hodgkin lymphoma), as well as normal retina (non-cancerous) cells (hTERT RPE-1). Docetaxel, etoposide and stauroporine were used as the reference compounds.
All assays were performed in 96-well microtiter plates. To each well was added (5–7.5) × 10^4 tumor cells and a given amount of the tested compound. The cells were allowed to proliferate at 37 °C in a humidified, CO2-controlled atmosphere. At the end of the incubation period, the cells were counted in a Coulter counter. The IC50 (50% inhibitory concentration) was defined as the concentration of the compound that inhibited cell proliferation by 50%.

SMILES: CN[C@@H]1C[C@H]2O[C@@](C)([C@@H]1OC)n1c3ccccc3c3c4c(c5c6ccccc6n2c5c31)C(=O)NC4 [Stauroporine, reference compound]
- pIC50: 6.18

Source: PMC8348901, “Novel N-Substituted 3-Aryl-4-(diethoxyphosphoryl)azetidin-2-ones as Antibiotic Enhancers and Antiviral Agents in Search for a Successful Treatment of Complex Infections” (International Journal of Molecular Sciences, 2021)
